Data as given in PubChem BioAssay AID504804 (Drosophila RNAi Screening Center, 2011).

Test: 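Fly genes whose loss lessens doxorubicin-driven cell death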 (primary screen)
Cells: Drosophila Kc cells
Knock-down reagent: long dsRNA against Drosophila genes, 0.5 µg dsRNA per well
Time to read-out: 96 h (48 h knock-down, then 48 h drug)
Conditions: doxorubicin 5 µg/ml for 48 h, added 48 h after dsRNA
Detection: 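Viability measured as cellular ATP by luminescence after 48 h knock-down then 48 h doxorubicin at 5 µg/ml; unnormalised plate counts for each replicate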
Direction: raw ATP luminescence: higher = more viable cells, protection from doxorubicin
Call rule: 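z-score of 2 or more over plate mean in both duplicates, retained only when retests and separate dsRNAs confirm the protection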
The screen tested about 19,000 reagents; this is a random part of those that have a named target and a result. In the full data, 47 (0.25%) are marked active. 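Signals are raw, not normalised; exact z-scores behind calls not deposited; actives needed confirmation, so some wells reaching 2 SD are inactive.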 Unmarked entries are inactive.

grsm [DRSC14165]
- raw ATP luminescence, replicate 1: 1.18e5
- raw ATP luminescence, replicate 2: 92960

grsm [DRSC14843]
- raw ATP luminescence, replicate 1: 1.13e5
- raw ATP luminescence, replicate 2: 58050

CG15042 [DRSC19618]
- raw ATP luminescence, replicate 1: 2.77e5
- raw ATP luminescence, replicate 2: 2.61e5

PPP1R15 [DRSC04422]
- raw ATP luminescence, replicate 1: 58617
- raw ATP luminescence, replicate 2: 39733

l(2)03659 [DRSC07269]
- raw ATP luminescence, replicate 1: 50227
- raw ATP luminescence, replicate 2: 80173

l(2)03659 [DRSC07638]
- raw ATP luminescence, replicate 1: 63293
- raw ATP luminescence, replicate 2: 80460

hll [DRSC01944]
- raw ATP luminescence, replicate 1: 66633
- raw ATP luminescence, replicate 2: 64297

Tk [DRSC14954]
- raw ATP luminescence, replicate 1: 41663
- raw ATP luminescence, replicate 2: 47457

CG7974 [DRSC08607]
- raw ATP luminescence, replicate 1: 62913
- raw ATP luminescence, replicate 2: 65500

SdhA [DRSC07547]
- raw ATP luminescence, replicate 1: 59750
- raw ATP luminescence, replicate 2: 70150

msl-2 [DRSC00829]
- raw ATP luminescence, replicate 1: 1.22e5
- raw ATP luminescence, replicate 2: 64817

CG5697 [DRSC15858]
- raw ATP luminescence, replicate 1: 62010
- raw ATP luminescence, replicate 2: 68210

Entries listed so far whose gene name begins with G or g (2):
grsm [DRSC14165]
- raw ATP luminescence, replicate 1: 1.18e5
- raw ATP luminescence, replicate 2: 92960

grsm [DRSC14843]
- raw ATP luminescence, replicate 1: 1.13e5
- raw ATP luminescence, replicate 2: 58050
